Data source: PubChem BioAssay AID1159584 (Peter MacCallum Cancer Centre, 2016)
The whole screen tested about 18,000 reagents; shown is a random part of them. Not all columns of the deposit are shown. Reagent sequences are not shown. Not stated in the record: the amount of reagent, the time to read-out.

- Assay: 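Genes that CDH1-null MCF10A cells selectively depend on to survive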 (primary screen)
- System: human MCF10A breast epithelial cells, parental and CDH1-null
- Reagent: siRNA against human genes
- Read-out: 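Cell viability by CellTiter-Glo ATP luminescence, each line scaled to the mean of mock wells across plates, then CDH1-null over parental ratio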
- Scale: CDH1-null / parental viability ratio: higher = CDH1-null cells survive relatively better than parental; CDH1-null viability vs mock: higher = more viable CDH1-null cells

Target gene | CDH1-null / parental viability ratio | CDH1-null viability vs mock (fraction of mock)
ATAD3C (GeneID 219293) | 1.03 | 0.62
MRPL24 (GeneID 79590) | 0.92 | 0.72
ZNF574 (GeneID 64763) | 0.9 | 0.38
VPS9D1 (GeneID 9605) | 1.31 | 1.06
RHNO1 (GeneID 83695) | 0.86 | 0.64
PCDHGA7 (GeneID 56108) | 0.79 | 0.64
POLD1 (GeneID 5424) | 0.99 | 0.87
ASB1 (GeneID 51665) | 0.92 | 0.55
ATRX (GeneID 546) | 1.03 | 0.89
CISD1 (GeneID 55847) | 1.08 | 0.93
ADAD1 (GeneID 132612) | 0.89 | 0.85

Continued; the last 3 above are carried over.
Target gene | CDH1-null / parental viability ratio | CDH1-null viability vs mock (fraction of mock)
ATRX (GeneID 546) | 1.03 | 0.89
CISD1 (GeneID 55847) | 1.08 | 0.93
ADAD1 (GeneID 132612) | 0.89 | 0.85
C1D (GeneID 10438) | 1.05 | 0.89
ADHFE1 (GeneID 137872) | 1.34 | 1.1
POLL (GeneID 27343) | 0.94 | 0.88
DPP6 (GeneID 1804) | 1.12 | 0.92
TOMM22 (GeneID 56993) | 1.21 | 1.04
UGT1A3 (GeneID 54659) | 1.1 | 0.97
STXBP6 (GeneID 29091) | 0.85 | 0.62
ANGPTL1 (GeneID 9068) | 0.86 | 0.94
ANKRD36B (GeneID 57730) | 1.2 | 1.25
TEX2 (GeneID 55852) | 0.65 | 0.7
C6orf62 (GeneID 81688) | 0.93 | 0.86
GOLGA8F (GeneID 100132565) | 1.02 | 1.1
CCDC70 (GeneID 83446) | 0.84 | 0.96
RASAL3 (GeneID 64926) | 1.11 | 0.84
PSG8 (GeneID 440533) | 0.93 | 0.86
NID1 (GeneID 4811) | 1.17 | 0.82
SAP30BP (GeneID 29115) | 0.98 | 0.62
